Measurements reported in PubChem BioAssay AID504784 (Drosophila RNAi Screening Center, 2011)
Aim: 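Search for regulators of lipid droplet storage in oleate-fed fly cells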 (primary screen). Cell system: Drosophila Kc167 embryonic cells. Knock-down reagent: long dsRNA against Drosophila genes, about 250 ng dsRNA per well. Duration: 4 days. Treatment: cells fed 400 µM oleic acid bound to BSA. Measured: 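Microscope images give a droplet-to-nucleus area ratio, taken as log and converted to a screen-wide B-score; higher values mean greater lipid storage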. Direction: droplet/nuclear area B-score: higher = more stored lipid (overstorage).
The deposit covers about 17,000 reagents; this is an unselected part of those that have a named target and a result. 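Each column is one replicate's B-score; the combined score over replicates was not deposited, so single values may mislead.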 The numbers tell different reagents against one gene apart. A plus sign joins genes that one reagent is predicted to hit. Not all columns of the deposit are shown.

Gene	reagent no.	droplet/nuclear area B-score, replicate 1	droplet/nuclear area B-score, replicate 2
vret	1	-1.33	0.00322
CG6168	1	0.0107	0.568
CG40378 (retired record)	1	-1.06	-0.478
CG5131	1	0.412	-0.00743
Cwc25	1	0.127	-0.697
ND-B18	1	0.488	-0.0307
CG2113	1	-0.225	-0.335
CG11293 (retired record)	1	-0.879	0.714
lncRNA:Hsromega	1	-0.674	-0.38
CG18744	1	-0.315	-0.158
Smyd4-1	1	-0.213	0.0182
U2af50	1	-2	-1.78
U2af50	2	-2.56	-2.25
comm2	1	0.103	-2.23
comm2	2	-0.751	0.661
CG33095	1	-0.735	-1.07
CG9143	1	1.21	2.16
Pop1	1	0.971	-0.0077
Prestin	1	-1.08	0.169
gsb	1	-0.0246	-1.5
CG4594	1	-0.0158	0.0891
CG6428	1	-0.434	-0.643
Cyp4ac1	1	0.479	0.504
MnM	1	1.41	-0.65
Sas-6	1	-0.942	-1.1
MED23 + CG3700	1	-0.929	-1.1
MED23 + CG3700	2	1.74	-0.27
Qsox3	1	-0.106	-0.566
CysRS-m	1	-0.807	3.08
Tsen34 + Trl	1	0.97	-0.264
CG31406	1	0.302	-0.674
Polr2M	1	0.49	-0.786
CG6893	1	2.49	1.11
CG33491 (retired record) + CG33496 (retired record) + CG33487 (retired record) + 1 more	1	-0.829	-1.25
CG6262	1	1.97	0
CG6262	2	-0.0319	2.68
CG32811	1	-1.05	-0.0286
MBD-R2	1	0.0131	1.27
Ptx1	1	-0.236	-2.71
CG2712	1	-1.31	
Ebp	1	0.905	-0.00794
slf	1	0.519	-1.14
Rtc1	1	-0.0377	-0.0963
Strica	1	0.529	0.16
CG7789	1	1.04	-1.02
CG17127	1	-0.734	0.929
CG7798	1	-0.571	-0.00401
CG11200	1	-0.908	0.736
CG6398	1	-0.408	-0.968
CG5225	1	-2.36	-0.72
CG43328	1	0.937	0.921

Records listed so far whose gene name starts with M or m:
Gene	reagent no.	droplet/nuclear area B-score, replicate 1	droplet/nuclear area B-score, replicate 2
MnM	1	1.41	-0.65
MED23 + CG3700	1	-0.929	-1.1
MED23 + CG3700	2	1.74	-0.27
MBD-R2	1	0.0131	1.27

Further entries:
Gene	reagent no.	droplet/nuclear area B-score, replicate 1	droplet/nuclear area B-score, replicate 2
Sbf	1	-0.9	-5.96
mod(mdg4) + pre-mod(mdg4)-Z + pre-mod(mdg4)-T	1	0.247	1.38
mod(mdg4) + pre-mod(mdg4)-Z + pre-mod(mdg4)-T	2	0.62	-2.13
CG15083	1	0.808	
CG14050	1	-0.0179	0.0848
CG15705	1	1.23	
CG5149	1	0.965	-0.159
Gcn5	1	0.804	0.216
tws	1	-0.716	-2.94
tws	2	8.34	-0.0464
Zmynd8	1	-1.73	-0.681
Nplp1	1	-0.79	0.695
Lcp65Ae	1	-1.09	-1.35
CG14000	1	0.814	1.32
CG9270	1	-0.0659	0.631
CG6083	1	1.91	-0.188
CG33521	1	0.0526	-0.21
CG33521	2	-0.237	-1.36
CG30283	1	0.241	1.23
CG13949	1	-0.302	0.286
CG5646	1	0.0138	0.688
CG7786	1	-0.0826	0.952
CG8067	1	-2.75	0.101
CG17768 + LSm-4	1	1.02	-1.22
Spn77Ba	1	1.1	1.16
Lrrk	1		1.24
Lrrk	2	1.67	0.0316
CG31674	1	-0.672	-1.52
CG18536	1	-0.546	-0.56
Tom	1	0.991	-0.943
CG32264	1	-0.7	-1.97
CG32264	2	0.489	-2.14
CG32264	3	-0.11	0.776
CG32264	4	1.11	0.0963
CG32264	5	0.109	1.53
PIG-N	1	0.71	-0.473
firl	1	-0.563	-1.54
Ndae1	1	0.055	0.415
Ndae1	2	-0.276	0.236
Reg-2	1	-0.403	0.374
CG11158	1	-0.899	-1.33
aph-1	1	-1.4	-1.44
Pp2C1	1	-0.822	0.729
Pp2C1	2	0.182	1.49
CG16865	1	-0.353	-1.38
CG7218	1	0.674	0.596
Usp10	1	-1.13	-0.85
Usp10	2	0.678	-0.0736
Apc2	1	0.321	3.8
fzr2	1	-0.997	-0.82
Osi20	1	-0.296	-0.686
5-HT2B	1	-0.236	-0.652
5-HT2B	2	-0.101	1.12
CG12398	1	1.33	-1.19
